In assay [1] the target is T1, His-HA-Clstn3 ΔCad (extracellular, without the cadherin domains) (mouse) (UniProt Q99JH7).
T1 sequence: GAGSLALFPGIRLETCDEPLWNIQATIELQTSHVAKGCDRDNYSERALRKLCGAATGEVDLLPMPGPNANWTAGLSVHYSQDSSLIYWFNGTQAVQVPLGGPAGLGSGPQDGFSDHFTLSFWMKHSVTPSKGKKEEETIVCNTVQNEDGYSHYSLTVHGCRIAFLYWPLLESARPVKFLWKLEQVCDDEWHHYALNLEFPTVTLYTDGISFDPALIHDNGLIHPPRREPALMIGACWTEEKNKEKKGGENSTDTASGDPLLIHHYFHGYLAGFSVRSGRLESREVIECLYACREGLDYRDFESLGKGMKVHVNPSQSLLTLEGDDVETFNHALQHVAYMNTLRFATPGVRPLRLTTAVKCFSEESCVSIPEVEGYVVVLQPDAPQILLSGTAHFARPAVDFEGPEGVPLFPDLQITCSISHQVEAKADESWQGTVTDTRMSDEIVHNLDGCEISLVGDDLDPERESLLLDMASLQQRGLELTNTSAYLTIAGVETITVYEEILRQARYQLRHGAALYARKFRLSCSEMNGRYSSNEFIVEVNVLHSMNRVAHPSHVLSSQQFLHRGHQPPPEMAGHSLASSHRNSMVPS
As to the kind of experiment: pull-down.

The chains behind the UniProt entries cited, without tags or fusion partners. Where a name states a change or a piece, a line headed by the entry shows the natural chain unless it says otherwise. Residues count along the entry.
UniProt Q62888, 15-678: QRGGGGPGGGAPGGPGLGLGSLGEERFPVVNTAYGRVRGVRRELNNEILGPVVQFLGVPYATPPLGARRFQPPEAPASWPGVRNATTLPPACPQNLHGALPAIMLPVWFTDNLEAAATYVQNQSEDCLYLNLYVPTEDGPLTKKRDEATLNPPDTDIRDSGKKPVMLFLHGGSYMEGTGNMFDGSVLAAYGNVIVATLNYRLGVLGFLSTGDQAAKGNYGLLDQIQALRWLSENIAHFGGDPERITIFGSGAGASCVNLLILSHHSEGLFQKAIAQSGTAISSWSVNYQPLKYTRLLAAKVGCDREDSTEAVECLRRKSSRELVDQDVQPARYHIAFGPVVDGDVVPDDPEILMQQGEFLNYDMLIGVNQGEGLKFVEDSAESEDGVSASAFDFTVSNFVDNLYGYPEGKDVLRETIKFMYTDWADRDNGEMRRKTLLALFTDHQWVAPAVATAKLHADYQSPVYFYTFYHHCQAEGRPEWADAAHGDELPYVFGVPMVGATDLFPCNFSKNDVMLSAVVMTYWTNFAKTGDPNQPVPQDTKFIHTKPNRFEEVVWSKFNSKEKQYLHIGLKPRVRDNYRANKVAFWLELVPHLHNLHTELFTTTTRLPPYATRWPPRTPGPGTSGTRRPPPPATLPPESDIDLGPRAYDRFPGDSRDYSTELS

Assay [2] concerns the target mNrxn1β ΔStalk1 (FLAG-tagged, lacks the entire stalk region) (mouse) (UniProt P0DI97). As to the kind of experiment: cell surface-binding assay.
In assay [3] the target is FLAG-mNrxn1β^+SS4 (N-terminally FLAG-tagged mouse Nrxn1β containing the SS4 insert) (mouse) (UniProt P0DI97). As to the kind of experiment: cell surface-binding assay.
In assay [4] the target is Ig-mNrxn1β^+SS4 (mouse) (UniProt P0DI97). As to the kind of experiment: pull-down.

No constants are given. Whether binding was seen depends on the method and setting. For some of these results: Binding seen in cells or lysates may run through a third protein. Some entries that bind do so weakly or less than the wild type. For some of these results: Where a sequence is shown, tags or fusion partners need not be part of it.

Take “Ig-mNrxn1β^+SS4 (from UniProt P0DI97 47-389) (Fc fusion)”: the binding result in assay [1] was “no binding”.

As to “Ig-NL-2 (Ig-fused neuroligin-2) (from UniProt Q62888 15-678) (Fc fusion)”, the binding entry in assay [2] and in assay [3] was “binds” throughout.

B1: FLAG-Clstn3 Full (full-length Clstn3) (protein, UniProt Q99JH7 20-956)
chain: NKANKHKPWIEAEYQGIVMENDNTVLLNPPLFALDKDAPLRYAGEICGFRLHGSGVPFEAVILDKATGEGLIRAKEPVDCEAQKEHTFTIQAYDCGEGPDGTNTKKSHKATVHVRVNDVNEFAPVFVERLYRAAVTEGKLYDRILRVEAIDGDCSPQYSQICYYEILTPNTPFLIDNDGNIENTEKLQYSGEKLYKFTVTAYDCGKKRAADDAEVEIQVKPTCKPSWQGWNKRIEYAPGAGSLALFPGIRLETCDEPLWNIQATIELQTSHVAKGCDRDNYSERALRKLCGAATGEVDLLPMPGPNANWTAGLSVHYSQDSSLIYWFNGTQAVQVPLGGPAGLGSGPQDGFSDHFTLSFWMKHSVTPSKGKKEEETIVCNTVQNEDGYSHYSLTVHGCRIAFLYWPLLESARPVKFLWKLEQVCDDEWHHYALNLEFPTVTLYTDGISFDPALIHDNGLIHPPRREPALMIGACWTEEKNKEKKGGENSTDTASGDPLLIHHYFHGYLAGFSVRSGRLESREVIECLYACREGLDYRDFESLGKGMKVHVNPSQSLLTLEGDDVETFNHALQHVAYMNTLRFATPGVRPLRLTTAVKCFSEESCVSIPEVEGYVVVLQPDAPQILLSGTAHFARPAVDFEGPEGVPLFPDLQITCSISHQVEAKADESWQGTVTDTRMSDEIVHNLDGCEISLVGDDLDPERESLLLDMASLQQRGLELTNTSAYLTIAGVETITVYEEILRQARYQLRHGAALYARKFRLSCSEMNGRYSSNEFIVEVNVLHSMNRVAHPSHVLSSQQFLHRGHQPPPEMAGHSLASSHRNSMVPSAATLIIVVCVGFLVLMVILGLVRIHSLHRRVSGTGGPSGASTDPKDPDLFWDDSALTIIVNPMESYQNQQTCVAGVAGGQQEEEDSSDSEAADSPSSDERRIIESPPHRY
Turning to B1, the binding entry in assay [4] is recorded as “binds”.

B2: Clstn3 (calsyntenin-3), endogenous in mouse synaptosomal membrane fractions (protein, UniProt Q99JH7 20-956)
chain: NKANKHKPWIEAEYQGIVMENDNTVLLNPPLFALDKDAPLRYAGEICGFRLHGSGVPFEAVILDKATGEGLIRAKEPVDCEAQKEHTFTIQAYDCGEGPDGTNTKKSHKATVHVRVNDVNEFAPVFVERLYRAAVTEGKLYDRILRVEAIDGDCSPQYSQICYYEILTPNTPFLIDNDGNIENTEKLQYSGEKLYKFTVTAYDCGKKRAADDAEVEIQVKPTCKPSWQGWNKRIEYAPGAGSLALFPGIRLETCDEPLWNIQATIELQTSHVAKGCDRDNYSERALRKLCGAATGEVDLLPMPGPNANWTAGLSVHYSQDSSLIYWFNGTQAVQVPLGGPAGLGSGPQDGFSDHFTLSFWMKHSVTPSKGKKEEETIVCNTVQNEDGYSHYSLTVHGCRIAFLYWPLLESARPVKFLWKLEQVCDDEWHHYALNLEFPTVTLYTDGISFDPALIHDNGLIHPPRREPALMIGACWTEEKNKEKKGGENSTDTASGDPLLIHHYFHGYLAGFSVRSGRLESREVIECLYACREGLDYRDFESLGKGMKVHVNPSQSLLTLEGDDVETFNHALQHVAYMNTLRFATPGVRPLRLTTAVKCFSEESCVSIPEVEGYVVVLQPDAPQILLSGTAHFARPAVDFEGPEGVPLFPDLQITCSISHQVEAKADESWQGTVTDTRMSDEIVHNLDGCEISLVGDDLDPERESLLLDMASLQQRGLELTNTSAYLTIAGVETITVYEEILRQARYQLRHGAALYARKFRLSCSEMNGRYSSNEFIVEVNVLHSMNRVAHPSHVLSSQQFLHRGHQPPPEMAGHSLASSHRNSMVPSAATLIIVVCVGFLVLMVILGLVRIHSLHRRVSGTGGPSGASTDPKDPDLFWDDSALTIIVNPMESYQNQQTCVAGVAGGQQEEEDSSDSEAADSPSSDERRIIESPPHRY
As to B2, in assay [4], the binding result is given as “binds”.

B3: FLAG-Clstn3 ΔCad (full-length Clstn3 lacking the tandem cadherin domains) (domain or fragment, UniProt Q99JH7 258-956)
chain: GAGSLALFPGIRLETCDEPLWNIQATIELQTSHVAKGCDRDNYSERALRKLCGAATGEVDLLPMPGPNANWTAGLSVHYSQDSSLIYWFNGTQAVQVPLGGPAGLGSGPQDGFSDHFTLSFWMKHSVTPSKGKKEEETIVCNTVQNEDGYSHYSLTVHGCRIAFLYWPLLESARPVKFLWKLEQVCDDEWHHYALNLEFPTVTLYTDGISFDPALIHDNGLIHPPRREPALMIGACWTEEKNKEKKGGENSTDTASGDPLLIHHYFHGYLAGFSVRSGRLESREVIECLYACREGLDYRDFESLGKGMKVHVNPSQSLLTLEGDDVETFNHALQHVAYMNTLRFATPGVRPLRLTTAVKCFSEESCVSIPEVEGYVVVLQPDAPQILLSGTAHFARPAVDFEGPEGVPLFPDLQITCSISHQVEAKADESWQGTVTDTRMSDEIVHNLDGCEISLVGDDLDPERESLLLDMASLQQRGLELTNTSAYLTIAGVETITVYEEILRQARYQLRHGAALYARKFRLSCSEMNGRYSSNEFIVEVNVLHSMNRVAHPSHVLSSQQFLHRGHQPPPEMAGHSLASSHRNSMVPSAATLIIVVCVGFLVLMVILGLVRIHSLHRRVSGTGGPSGASTDPKDPDLFWDDSALTIIVNPMESYQNQQTCVAGVAGGQQEEEDSSDSEAADSPSSDERRIIESPPHRY
For the molecule B3, in assay [4], the binding result was “no binding”.

B4: FLAG-Clstn3 Cad (tandem cadherin domains, transmembrane segment and intracellular residues of Clstn3) (domain or fragment, UniProt Q99JH7 29-252; Q99JH7 848-956)
chain: IEAEYQGIVMENDNTVLLNPPLFALDKDAPLRYAGEICGFRLHGSGVPFEAVILDKATGEGLIRAKEPVDCEAQKEHTFTIQAYDCGEGPDGTNTKKSHKATVHVRVNDVNEFAPVFVERLYRAAVTEGKLYDRILRVEAIDGDCSPQYSQICYYEILTPNTPFLIDNDGNIENTEKLQYSGEKLYKFTVTAYDCGKKRAADDAEVEIQVKPTCKPSWQGWNKRATLIIVVCVGFLVLMVILGLVRIHSLHRRVSGTGGPSGASTDPKDPDLFWDDSALTIIVNPMESYQNQQTCVAGVAGGQQEEEDSSDSEAADSPSSDERRIIESPPHRY
As for B4, the binding result in assay [4] is “binds”.

The values are drawn from publication doi:10.1101/2020.01.24.918722.
